## Screening data, single-dose tests

By UniProt entry, the sequences of proteins in these tests, tags left out.
UniProt P9WPC5, whole entry: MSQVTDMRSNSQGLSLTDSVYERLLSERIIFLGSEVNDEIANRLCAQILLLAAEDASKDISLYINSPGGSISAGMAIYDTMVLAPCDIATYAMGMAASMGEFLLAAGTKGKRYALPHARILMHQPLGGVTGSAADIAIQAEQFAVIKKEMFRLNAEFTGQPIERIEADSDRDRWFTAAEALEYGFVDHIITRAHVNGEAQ
UniProt P9WPC3, whole entry partner: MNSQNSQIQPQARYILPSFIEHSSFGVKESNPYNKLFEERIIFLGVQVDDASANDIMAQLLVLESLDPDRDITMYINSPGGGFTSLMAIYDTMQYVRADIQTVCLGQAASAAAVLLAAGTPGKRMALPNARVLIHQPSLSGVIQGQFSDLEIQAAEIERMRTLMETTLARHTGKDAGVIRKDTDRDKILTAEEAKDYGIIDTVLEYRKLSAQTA

The values are deposited in ChEMBL (CHEMBL3988442, “University of Dundee, Small-Polar-MMV Screening Library” (2021)).

Each number is a percent effect as filed.
How 0% and 100% were set is not recorded. Most values in the screen are low, and negative values occur.
Compounds were drawn at random from those tested, without regard to their results.

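Protease assay of ClpP1P2, read by the AMC dye that it sets free. Target: ClpP1P2, Mycobacterium tuberculosis (UniProt P9WPC5 and UniProt P9WPC3). Compounds at 50 µM. Direction is inferred from only a few compounds that gave an IC50; most scored high, so higher reads as stronger inhibition. Most other retested compounds had strongly negative values. Of about 69,000 compounds tested this way, about 10 (0.015%) reached 50% or more in at least one test.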

SMILES	effect
Cc1nc(Nc2nnc(C)s2)cc(C2CCCN2C)n1 (configuration not stated)	11.51
O=C(CCCn1ccnc1)N1CCC2(CC1)[C@H](O)C[C@@H]2OCCO	-8.26
Cc1cc(NC(C)C(=O)NCC(F)(F)F)nc(-c2ccncc2)n1 (configuration not stated)	6.574
O=C(Cn1c(=O)oc2ccccc21)NCC1(O)CCc2ccccc2C1 (configuration not stated)	-9.238
Cc1ccc(S(=O)(=O)NCC2(O)CCOc3ccccc32)s1 (configuration not stated)	-19.11
CC(C)CC(=O)N1Cc2ccccc2CC1C(=O)Nc1nccs1 (configuration not stated)	4.618
CC(C)OCCCNC(=O)c1cccnc1N1CCOCC1	-11.8
Cc1ccc(C)c(CSc2nnc([C@@H](N)C(C)C)o2)c1	1.618
Cc1cc(C)n(CC2CCCN2C(=O)c2cccnc2N(C)C)n1 (configuration not stated)	11.21
COc1cc(N2CCN(Cc3ccc(C)o3)C(CCO)C2)nc(N)n1 (configuration not stated)	-4.637
Cc1ccc(CN(CCN(C)C)C(=O)Nc2cnn(C)c2)s1	-0.7792
O=C(NCCOCC(F)(F)F)c1ccc(-c2ccccc2)[nH]c1=O	-29.39
c1csc(CN2C[C@@H]3COC[C@]3(COCc3ccncc3)C2)c1	-11.97
NC[C@H]1CC[C@H](C(NC(=O)CC2CCCC2)c2ccccn2)CC1 (some centres not stated)	3.939
O=S(=O)(N1CCOCC1)N1CCCCC1CCn1cccn1 (configuration not stated)	5.072
CCOC(=O)CC(c1ccc(OC)c(OC)c1)c1c(O)n[nH]c1C (configuration not stated)	0.5865
O=C(O)C1c2nc[nH]c2CCN1Cc1ccccc1-c1ccccc1 (configuration not stated)	-22.15
CC(C)NS(=O)(=O)c1cc(C(=O)O)cc(-c2ccccc2C#N)c1	5.229
COc1ccc(CN2CCc3sccc3C2C)cc1CN1CCOCC1 (configuration not stated)	-1.603
CS(=O)(=O)c1cncnc1C1CCCN(C(=O)Nc2ccc(F)cc2)C1 (configuration not stated)	-7.696
COCCOCC(=O)N1C[C@@H]2CC[C@H](Oc3cccc(F)c3)[C@@H]2C1	-13.52
O=C(c1ccncc1F)N1CCc2ncnc(-c3ccncc3)c2CC1	2.004
CCc1nc(C2CCCN2C(=O)c2ccc3c(c2)COC3)no1 (configuration not stated)	-13.33
COCc1nc(N(C)C)ncc1C(=O)Nc1cc(C)cc(C)c1	-1.951
COc1cc(N2CC[C@@H]3O[C@@H](C(=O)NCCN(C)C)C[C@@H]32)ncn1	-17.84
c1c(CN2CCOCC2)nc2n1CCN(CC1CC1)C2	-0.6041
CN(C)S(=O)(=O)N1CCC(c2cccc(Cc3ccccc3Cl)n2)CC1	7.755
CC(C)(C)C(=O)NCCC(=O)NCCc1ccn(-c2ccccc2)n1	-3.357
O=C(Nc1ccccc1Cl)N1CCN(CC2CC2)[C@@H]2CS(=O)(=O)C[C@@H]21	-8.95
Cc1cc(C)cc(C(C(=O)O)N(C)CCCN2CCOCC2)c1 (configuration not stated)	3.403
COc1ccc(C(=O)N2C[C@@H](C(=O)O)[C@H](c3cccc(F)c3)C2)c(O)c1	7.155
COc1ccc2c(c1)c(C(=O)Nc1nnn[nH]1)cn2C(C)C	12.28
COc1ccccc1C(C)CNC(=O)c1c(C)nn(C)c1OC (configuration not stated)	15.07
c1c(CN2CCCC2)nc2n1CCN(CC1CC1)C2	-8.408
CCc1ncc2c(n1)CN(CC(O)COc1ccc(C#N)cc1)CC2 (configuration not stated)	-5.257
CC(=O)NC[C@@H]1C=C(C)[C@H](CC(=O)NCCN(C)C)C[C@H]1C(C)C	4.981
N#Cc1cc(NS(=O)(=O)c2ccc(C(=O)O)cc2F)ccc1F	5.457
CC(C)c1noc(CN2CCN(C(=O)c3ccncc3F)CC2)n1	-15.11
CS(=O)(=O)N1C[C@H]2CCC[C@@]2(COCC2CCOCC2)C1	-1.969
CCCN(C)S(=O)(=O)N1CCCC1c1ccco1 (configuration not stated)	-17.23
F[C@@H]1CN(Cc2ccccc2)C[C@@H]1OCc1nc2ccccc2[nH]1	-2.315
Cn1cnc(S(=O)(=O)N2CCN(Cc3ccco3)CC2)c1Cl	-5.577
Cc1cccc(=O)n1CCCNc1nc(N(C)C)nc2c1CCNCC2	-5.868
CCOc1cncc(N2CCN(c3ccccc3O)CC2)n1	-3.59
O=C(NCCN1CCOC1=O)c1cnc(-c2cccnc2)nc1	11.35
COC(=O)CCCNC(=O)Nc1ccccc1OC	10.48
CCOC(=O)[C@]12CCCN(Cc3nccs3)C[C@H]1CN(S(C)(=O)=O)C2	-6.75
Cc1nc(-c2ccccc2F)sc1C(=O)N1CCC(=O)CC1	-0.7453
Cc1cc(C)n(CC2CCCN2CC(=O)N(C)Cc2ccco2)n1 (configuration not stated)	-31.94
NC(=O)NCC1CCCCN1C(=O)c1cccc(C(F)(F)F)c1 (configuration not stated)	4.485
Cc1cc(F)c(S(=O)(=O)N(C)CCn2cccn2)cc1F	-3.857
NC(=O)CC1CCCN(c2cncc(OCc3ccccc3)n2)C1 (configuration not stated)	-51.65
O=C(C1CNCCN1C(=O)CCc1cccnc1)N1CCOCC1 (configuration not stated)	-9.402

The first 6 entries again:

| SMILES | effect |
|---|---|
| `Cc1nc(Nc2nnc(C)s2)cc(C2CCCN2C)n1` (configuration not stated) | 11.51 |
| `O=C(CCCn1ccnc1)N1CCC2(CC1)[C@H](O)C[C@@H]2OCCO` | -8.26 |
| `Cc1cc(NC(C)C(=O)NCC(F)(F)F)nc(-c2ccncc2)n1` (configuration not stated) | 6.574 |
| `O=C(Cn1c(=O)oc2ccccc21)NCC1(O)CCc2ccccc2C1` (configuration not stated) | -9.238 |
| `Cc1ccc(S(=O)(=O)NCC2(O)CCOc3ccccc32)s1` (configuration not stated) | -19.11 |
| `CC(C)CC(=O)N1Cc2ccccc2CC1C(=O)Nc1nccs1` (configuration not stated) | 4.618 |